PubChem BioAssay AID1259254 – NCATS – 2017

Test: 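Genome-wide screen for genes that prevent DNA re-replication in cancer cells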 (primary screen)
System: human HCT116 colorectal cancer cells
Knock-down reagent: single siRNA against human genes
Time to read-out: 3 days
Measured: 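Imaged Hoechst DNA stain sorts each cell into a cycle phase by DNA amount; per plate, G2 fraction set to 0% for non-targeting and 100% for GMNN siRNA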
Reading the numbers: G2 robust z-score and G2 cells, % of GMNN control: higher = more G2 cells, more excess DNA replication; raw share of cells in G2: higher = larger share of cells with G2 DNA content
Hit rule: 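An siRNA counts as active if its G2 robust z-score lies at least 5 MADs above the screen median; here such calls match roughly 38% of GMNN control or more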
This is an unselected part of about 59,000 deposited reagents. Over the whole deposit, about 1,550 (2.6%) got an active call. 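G2 share is only a proxy for re-replication; each gene was hit by three separate siRNAs, and active genes were retested.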 Raw values are not corrected between plates. The numbers tell different reagents against one gene apart. The record does not give: the amount of reagent.

gene knocked down,reagent no.,G2 robust z-score,"G2 cells, % of GMNN control",raw share of cells in G2 (%),outcome
DLD (dihydrolipoamide dehydrogenase),1,2.93,23.6,13.4,inactive
DLD (dihydrolipoamide dehydrogenase),2,0.0227,3.13,5.17,inactive
DLD (dihydrolipoamide dehydrogenase),3,-0.776,-2.49,4.08,inactive
NDUFB11 (NADH:ubiquinone oxidoreductase subunit B11),1,-0.668,-1.73,3.14,inactive
NDUFB11 (NADH:ubiquinone oxidoreductase subunit B11),2,-0.862,-3.1,3.1,inactive
NDUFB11 (NADH:ubiquinone oxidoreductase subunit B11),3,4.7,36,22.3,inactive
LETMD1 (LETM1 domain containing 1),1,-1.17,-5.24,2.44,inactive
LETMD1 (LETM1 domain containing 1),2,0.718,8.02,7.41,inactive
LETMD1 (LETM1 domain containing 1),3,0.881,9.17,6.5,inactive
THBD (thrombomodulin),1,-0.0944,2.3,5.34,inactive
THBD (thrombomodulin),2,-0.265,1.1,4.32,inactive
THBD (thrombomodulin),3,0.821,8.74,8.62,inactive
IL1B (interleukin 1 beta),1,-0.421,0.00481,5.69,inactive
IL1B (interleukin 1 beta),2,0.0983,3.66,5.54,inactive
IL1B (interleukin 1 beta),3,0.534,6.72,7.49,inactive
ZNF511 (zinc finger protein 511),1,0.647,7.52,7.11,inactive
ZNF511 (zinc finger protein 511),2,-1.03,-4.25,2.06,inactive
ZNF511 (zinc finger protein 511),3,0.468,6.26,3.65,inactive
CDCP1 (CUB domain containing protein 1),1,-0.551,-0.91,4.18,inactive
CDCP1 (CUB domain containing protein 1),2,-0.218,1.43,5.25,inactive
CDCP1 (CUB domain containing protein 1),3,3.13,25,9.29,inactive
CIBAR1 (CBY1 interacting BAR domain containing 1),1,-0.628,-1.45,2.05,inactive
CIBAR1 (CBY1 interacting BAR domain containing 1),2,-0.539,-0.822,3.86,inactive
CIBAR1 (CBY1 interacting BAR domain containing 1),3,0.061,3.4,4.18,inactive
ARL16 (ARF like GTPase 16),1,-1.12,-4.89,2.22,inactive
ARL16 (ARF like GTPase 16),2,-1.2,-5.45,2.11,inactive
ARL16 (ARF like GTPase 16),3,0.595,7.15,6.39,inactive
SFR1 (SWI5 dependent homologous recombination repair protein 1),1,1.91,16.4,10.7,inactive
SFR1 (SWI5 dependent homologous recombination repair protein 1),2,0.915,9.41,6.13,inactive
SFR1 (SWI5 dependent homologous recombination repair protein 1),3,-0.493,-0.503,1.67,inactive
SOAT2 (sterol O-acyltransferase 2),1,-0.467,-0.318,4.59,inactive
SOAT2 (sterol O-acyltransferase 2),2,-1.65,-8.64,2.23,inactive
SOAT2 (sterol O-acyltransferase 2),3,-0.417,0.0309,4.55,inactive
PIGR (polymeric immunoglobulin receptor),1,-0.239,1.28,3.88,inactive
PIGR (polymeric immunoglobulin receptor),2,-0.481,-0.415,4.18,inactive
PIGR (polymeric immunoglobulin receptor),3,-0.495,-0.517,4.63,inactive
CYB5R4 (cytochrome b5 reductase 4),1,0.415,5.89,8.63,inactive
CYB5R4 (cytochrome b5 reductase 4),2,0.568,6.97,6.82,inactive
CYB5R4 (cytochrome b5 reductase 4),3,-1.38,-6.72,1.23,inactive
RFX2 (regulatory factor X2),1,-0.119,2.13,4.31,inactive
RFX2 (regulatory factor X2),2,-0.489,-0.476,4.62,inactive
RFX2 (regulatory factor X2),3,0.562,6.92,5.62,inactive
ENAH (ENAH actin regulator),1,0.695,7.86,7.54,inactive
ENAH (ENAH actin regulator),2,1.56,13.9,9.91,inactive
ENAH (ENAH actin regulator),3,4.05,31.5,13.2,inactive
PRMT8 (protein arginine methyltransferase 8),1,-0.0352,2.72,7.62,inactive
PRMT8 (protein arginine methyltransferase 8),2,-0.978,-3.92,3.04,inactive
PRMT8 (protein arginine methyltransferase 8),3,0.0363,3.22,5.68,inactive

2 entries from above, ordered by “raw share of cells in G2 (%)”, ascending:
gene knocked down,reagent no.,G2 robust z-score,"G2 cells, % of GMNN control",raw share of cells in G2 (%),outcome
THBD (thrombomodulin),2,-0.265,1.1,4.32,inactive
THBD (thrombomodulin),1,-0.0944,2.3,5.34,inactive
